Experimental findings from the supplement of paper PMC12889115 are described below.

This experiment deals with Salmonella enterica serovar Typhimurium SL1344. The experiment can be described thus: bacterial growth OD600 after 18 h with compound and polymyxin B; higher = more bacterial growth (less inhibition). The settings on record: 50 µM, Mueller-Hinton broth.

The other results are listed elsewhere or left out. These are raw signals, not scaled to a control.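 First-pass screen: polymyxin B was added at a level that permeabilizes the Salmonella outer membrane while sparing the inner membrane. DMSO wells, with and without polymyxin B, defined maximum growth. Because plates differed from one another, each plate's data were ranked separately and the compounds with the lowest OD600 were carried forward as hits.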

For `Cc1noc(-c2ccc(N(C)Cc3ccncc3C)nc2)n1`, the “bacterial growth OD600” value (polymyxin B 1 µg/mL) is 1.05. For the molecule `O=C(NC1CCCN(CCc2ccccc2)C1)c1cc2sccc2[nH]1` (configuration not stated), the “bacterial growth OD600” value (polymyxin B 1 µg/mL) was found to be 0.634. In the case of `CN(C)c1ncccc1CNC(=O)Nc1cccc(F)c1`, the “bacterial growth OD600” value (polymyxin B 1 µg/mL) stood at 0.891. In the case of `Cc1oc(-c2ccc3ccccc3c2)nc1CN1CCN(C(=O)c2ccco2)CC1`, the “bacterial growth OD600” value (polymyxin B 1 µg/mL) was determined as 0.521. `C=CCOc1ccccc1CN1CCOc2ccc(CN3CCN(Cc4ccccn4)CC3)cc2C1`: the “bacterial growth OD600” value (polymyxin B 0.75 µg/mL) was found to be 0.775. Regarding `COc1cccc(N2C(=O)CN(C(=O)CC3=CCCCC3)CC2C)c1` (configuration not stated), where the note is “polymyxin B 0.75 µg/mL”, the “bacterial growth OD600” value was 0.718. For `Cc1ccc(-c2ccc(C(=O)N3CCC4(CCCN(C)C4=O)C3)cc2)o1` (configuration not stated), the “bacterial growth OD600” value (polymyxin B 0.75 µg/mL) worked out at 0.784. Consider `COc1cc(CN2CCN(Cc3ccc(C)s3)CC2CCO)cc(OC)c1` (configuration not stated), for which the “bacterial growth OD600” value (polymyxin B 1 µg/mL) stood at 0.928. For the molecule `CN(C(=O)CC1(c2ccc(-c3ccccc3)cc2)CC(=O)N(C2CC2)C1=O)C1CCOCC1` (configuration not stated), where the note is “polymyxin B 0.75 µg/mL”, the “bacterial growth OD600” value came to 0.006. For the molecule `C[C@@H]1CN(C2(C(=O)N[C@H]3CC[C@H](O)CC3)Cc3ccccc3C2)C[C@H](C)O1`, for the setting “polymyxin B 0.75 µg/mL”, the “bacterial growth OD600” value is 0.847. In the case of `COc1ccccc1C1CN(CCNC(=O)CC2NC(=O)c3ccccc32)Cc2ccccc2O1` (configuration not stated), the “bacterial growth OD600” value (polymyxin B 0.75 µg/mL) stood at 0.837. Turning to `COCc1ccc(C(=O)Nc2ccc(-c3nc(CNC(=O)CCc4scnc4C)c(C)o3)cc2)o1`, the “bacterial growth OD600” value (polymyxin B 0.75 µg/mL) was determined as 0.813. The same measure, in the same setting: next, `O=C([C@@H]1C[C@H]1c1ccccc1)N1CCc2onc(-c3ccc(Cl)cc3)c2C1`: 0.226; `Cc1ccccc1N1C(=O)CN(C(=O)c2cnsn2)CC1C` (configuration not stated): 0.831; `Cc1nc(N2CCC(NCC3C4CC5CC(C4)CC3C5)CC2)nc2cc(S(C)(=O)=O)ccc12` (configuration not stated): 0.786. The same measure, in the same setting: next, `O=C(c1cnn(-c2ncc3c(n2)-c2ccccc2CC3)c1C1CC1)N1CCN(Cc2ccccc2)CC1`: 0.721. Regarding `Cc1cnc(C)c(N2CCN(C(=O)c3cn(Cc4ccc(F)cc4)nn3)CC2)n1`, the “bacterial growth OD600” value (polymyxin B 1 µg/mL) came to 0.949.

For `Cc1occc1C(=O)NC1CC(C)(C)Cc2nc(N3CCC(O)CC3)ncc21` (configuration not stated), the “bacterial growth OD600” value (polymyxin B 0.75 µg/mL) was 0.812. Consider `COC1CCCN(C(=O)CN2Cc3ccccc3OC(c3ccccc3F)C2)C1` (configuration not stated), for which the “bacterial growth OD600” value (polymyxin B 0.75 µg/mL) was 0.007. Consider `COc1ccc(O)c(CNC2COc3c(cccc3OC)C2)c1` (configuration not stated), for which the “bacterial growth OD600” value (polymyxin B 0.75 µg/mL) was 0.791. Regarding `COc1ccc(CN(C)CC2CCCN(CCc3ccc(F)cc3)C2)c(OC)c1OC` (configuration not stated), the “bacterial growth OD600” value (polymyxin B 1 µg/mL) was found to be 0.747. Turning to `O=C(CCC(=O)N1CCCC(Nc2ccc(F)c(F)c2)C1)c1ccccc1` (configuration not stated), where the note is “polymyxin B 1 µg/mL”, the “bacterial growth OD600” value was 0.588.

As to `COc1ccc(Cc2noc(-c3ccc(N4CCCC4)nc3)n2)cc1`, the “bacterial growth OD600” value (polymyxin B 1 µg/mL) amounted to 0.901. In the case of `CN(Cc1ccccn1)C(=O)c1cc(Cn2ccc3ccccc32)[nH]n1`, the “bacterial growth OD600” value (polymyxin B 0.75 µg/mL) worked out at 0.773. As for `O=C(CCc1ccsc1)NC1CC(=O)N(Cc2ccc(F)cc2)C1` (configuration not stated), the “bacterial growth OD600” value (polymyxin B 1 µg/mL) was determined as 0.893. For the molecule `COc1cc([C@@H]2C[C@H]3CN(C4CCCC4)C(=O)[C@]34CCCN24)cc(OC)c1OC`, the “bacterial growth OD600” value (polymyxin B 0.75 µg/mL) amounted to 0.871.

Turning to `Cn1c(C2CCC2)nc2cc(C(=O)N3CCC(c4ccncc4)CC3)cc(NC(=O)C3CCCO3)c21` (configuration not stated), the “bacterial growth OD600” value (polymyxin B 0.75 µg/mL) was found to be 0.809. Same read-out and setting: next, `Cc1cc(CN2CCCC(CNC(=O)c3cccc(C(F)(F)F)c3)C2)[nH]n1` (configuration not stated): 0.84. As to `Cc1nc(N2CCC(NCCC3=CCCCC3)CC2)nc2ccc(F)cc12`, the “bacterial growth OD600” value (polymyxin B 0.75 µg/mL) turned out to be 0.731. Regarding `CC(C)CCCC1CN(C(=O)CCN2CCCCO2)CCO1` (configuration not stated), the “bacterial growth OD600” value (polymyxin B 1 µg/mL) stood at 0.976. `O=C(NC1CCC1)c1cc(CN2CCOCC2)on1`: the “bacterial growth OD600” value (polymyxin B 1 µg/mL) is 0.917. As for `Cc1ccccc1-n1ncc(C(C)NC(=O)c2cccs2)c1C` (configuration not stated), the “bacterial growth OD600” value (polymyxin B 1 µg/mL) came to 0.911.
